# Experimental data as given in the supplement of paper PMC8728848.
# The list shows a part of the results.
# B1: CTLX (Homo sapiens), Q6UXS0 (protein)
# chain: SLCPLFWMEFKGHCYRFFPLNKTWAEADLYCSEFSVGRKSAKLASIHSWEENVFVYDLVNSCVPGIPADVWTGLHDHRQEGQFEWTDGSSYDYSYWDGSQPDDGVHADPEEEDCVQIWYRPTSALRSWNDNTCSRKFPFVCKIPSLTIH
# How the values were obtained:
# Experiment in all cases: glycan array binding signal (z-score within array); higher = stronger binding
# Conditions in all cases: glycan notation: IUPAC condensed, linker removed
# Gal(b1-3)Gal = target: Gal(b1-3)Gal
# Outline: (§1)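 The binding signal is a Z-score computed within each array. Data were drawn from 3228 arrays in the Consortium for Functional Glycomics database, restricted to those with a known protein sequence. Scores were averaged over arrays of the same protein sequence at different concentrations or buffers, and over linkers, and negative values can be taken as non-binding.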
# Gal(b1-3)Gal(b1-4)GlcNAc = target: Gal(b1-3)Gal(b1-4)GlcNAc
# Outline: as §1
# [1] = target: Gal(b1-3)Gal(b1-4)GlcNAc(b1-2)Man(a1-3)[Gal(b1-3)Gal(b1-4)GlcNAc(b1-2)Man(a1-6)]Man(b1-4)GlcNAc(b1-4)GlcNAc
# Outline: as §1
# Gal(b1-3)GalNAc = target: Gal(b1-3)GalNAc
# Outline: as §1
# [2] = target: Gal(b1-3)GalNAc(a1-3)[Fuc(a1-2)]Gal(b1-4)Glc
# Outline: as §1
# [3] = target: Gal(b1-3)GalNAc(a1-3)[Fuc(a1-2)]Gal(b1-4)GlcNAc
# Outline: as §1
# [4] = target: Gal(b1-3)GalNAc(b1-3)Gal(a1-4)Gal(b1-4)Glc
# Outline: as §1
# [5] = target: Gal(b1-3)GalNAc(b1-4)Gal(b1-4)Glc
# Outline: as §1
# [6] = target: Gal(b1-3)GalNAc(b1-4)[Neu5Ac(a2-3)]Gal(b1-4)Glc
# Outline: as §1
# Gal(b1-3)GlcNAc = target: Gal(b1-3)GlcNAc
# Outline: as §1
# [7] = target: Gal(b1-3)GlcNAc(b1-2)Man(a1-3)[Gal(b1-3)GlcNAc(b1-2)Man(a1-6)]Man(b1-4)GlcNAc(b1-4)GlcNAc
# Outline: as §1
# [8] = target: Gal(b1-3)GlcNAc(b1-2)Man(a1-3)[Gal(b1-3)GlcNAc(b1-2)Man(a1-6)]Man(b1-4)GlcNAc(b1-4)[Fuc(a1-6)]GlcNAc
# Outline: as §1
# [9] = target: Gal(b1-3)GlcNAc(b1-3)Gal(b1-3)GlcNAc
# Outline: as §1
# [10] = target: Gal(b1-3)GlcNAc(b1-3)Gal(b1-4)Glc
# Outline: as §1
# [11] = target: Gal(b1-3)GlcNAc(b1-3)Gal(b1-4)GlcNAc
# Outline: as §1
# [12] = target: Gal(b1-3)[Fuc(a1-4)]GlcNAc
# Outline: as §1
# [13] = target: Gal(b1-3)[Fuc(a1-4)]GlcNAc(b1-2)Man(a1-3)[Gal(b1-3)[Fuc(a1-4)]GlcNAc(b1-2)Man(a1-6)]Man(b1-4)GlcNAc(b1-4)GlcNAc
# Outline: as §1
# [14] = target: Gal(b1-3)[Fuc(a1-4)]GlcNAc(b1-2)Man(a1-3)[Gal(b1-3)[Fuc(a1-4)]GlcNAc(b1-2)Man(a1-6)]Man(b1-4)GlcNAc(b1-4)[Fuc(a1-6)]GlcNAc
# Outline: as §1
# [15] = target: Gal(b1-3)[Fuc(a1-4)]GlcNAc(b1-3)Gal(b1-3)[Fuc(a1-4)]GlcNAc
# Outline: as §1
# [16] = target: Gal(b1-3)[Fuc(a1-4)]GlcNAc(b1-3)Gal(b1-4)GlcNAc
# Outline: as §1
# [17] = target: Gal(b1-3)[Fuc(a1-4)]GlcNAc(b1-3)Gal(b1-4)[Fuc(a1-3)]GlcNAc
# Outline: as §1
# [18] = target: Gal(b1-3)[GlcNAc(b1-6)]GalNAc
# Outline: as §1
# [19] = target: Gal(b1-3)[Neu5Ac(a2-6)]GalNAc
# Outline: as §1
# [20] = target: Gal(b1-3)[Neu5Ac(a2-6)]GlcNAc(b1-6)Gal(b1-4)Glc
# Outline: as §1
# [21] = target: Gal(b1-3)[Neu5Ac(b2-6)]GalNAc
# Outline: as §1
# [22] = target: Gal(b1-4)GalNAc(a1-3)[Fuc(a1-2)]Gal(b1-4)GlcNAc
# Outline: as §1
# [23] = target: Gal(b1-4)GalNAc(b1-3)[Fuc(a1-2)]Gal(b1-4)GlcNAc
# Outline: as §1
# Gal(b1-4)Glc = target: Gal(b1-4)Glc
# Outline: as §1
# Gal(b1-4)Glc6S = target: Gal(b1-4)Glc6S
# Outline: as §1
# Gal(b1-4)GlcNAc = target: Gal(b1-4)GlcNAc
# Outline: as §1
# [24] = target: Gal(b1-4)GlcNAc(a1-6)Gal(b1-4)GlcNAc
# Outline: as §1
# [25] = target: Gal(b1-4)GlcNAc(b1-2)Man(a1-3)Man(b1-4)GlcNAc(b1-4)GlcNAc
# Outline: as §1
# [26] = target: Gal(b1-4)GlcNAc(b1-2)Man(a1-3)[Gal(b1-4)GlcNAc(b1-2)Man(a1-6)]Man(b1-4)GlcNAc(b1-4)GlcNAc
# Outline: as §1
# [27] = target: Gal(b1-4)GlcNAc(b1-2)Man(a1-3)[Gal(b1-4)GlcNAc(b1-2)Man(a1-6)]Man(b1-4)GlcNAc(b1-4)[Fuc(a1-6)]GlcNAc
# Outline: as §1
# [28] = target: Gal(b1-4)GlcNAc(b1-2)Man(a1-3)[Man(a1-6)]Man(b1-4)GlcNAc(b1-4)GlcNAc
# Outline: as §1
# [29] = target: Gal(b1-4)GlcNAc(b1-2)Man(a1-6)Man(b1-4)GlcNAc(b1-4)GlcNAc
# Outline: as §1
# [30] = target: Gal(b1-4)GlcNAc(b1-2)Man(a1-6)[Man(a1-3)]Man(b1-4)GlcNAc(b1-4)GlcNAc
# Outline: as §1
# [31] = target: Gal(b1-4)GlcNAc(b1-2)[Gal(b1-4)GlcNAc(b1-4)]Man(a1-3)[Gal(b1-4)GlcNAc(b1-2)Man(a1-6)]Man(b1-4)GlcNAc(b1-4)GlcNAc
# Outline: as §1
# [32] = target: Gal(b1-4)GlcNAc(b1-3)Gal(b1-3)GlcNAc
# Outline: as §1
# [33] = target: Gal(b1-4)GlcNAc(b1-3)Gal(b1-4)Glc
# Outline: as §1
# [34] = target: Gal(b1-4)GlcNAc(b1-3)Gal(b1-4)GlcNAc
# Outline: as §1
# [35] = target: Gal(b1-4)GlcNAc(b1-3)Gal(b1-4)GlcNAc(b1-3)Gal(b1-4)GlcNAc
# Outline: as §1
# [36] = target: Gal(b1-4)GlcNAc(b1-3)Gal(b1-4)[Fuc(a1-3)]GlcNAc(b1-3)Gal(b1-4)[Fuc(a1-3)]GlcNAc
# Outline: as §1
# [37] = target: Gal(b1-4)GlcNAc(b1-3)GalNAc
# Outline: as §1
# [38] = target: Gal(b1-4)GlcNAc(b1-3)[Gal(b1-4)GlcNAc(b1-6)]Gal(b1-4)GlcNAc
# Outline: as §1
binder,measurement,setting,value
B1,glycan array binding signal (z-score),Gal(b1-3)Gal,-0.24
same,glycan array binding signal (z-score),Gal(b1-3)Gal(b1-4)GlcNAc,-0.608
same,glycan array binding signal (z-score),[1],-0.743
same,glycan array binding signal (z-score),Gal(b1-3)GalNAc,0.235
same,glycan array binding signal (z-score),[2],-1.03
same,glycan array binding signal (z-score),[3],-0.574
same,glycan array binding signal (z-score),[4],0.324
same,glycan array binding signal (z-score),[5],0.403
same,glycan array binding signal (z-score),[6],-0.893
same,glycan array binding signal (z-score),Gal(b1-3)GlcNAc,0.253
same,glycan array binding signal (z-score),[7],0.14
same,glycan array binding signal (z-score),[8],-0.994
same,glycan array binding signal (z-score),[9],-0.068
same,glycan array binding signal (z-score),[10],-0.467
same,glycan array binding signal (z-score),[11],-0.392
same,glycan array binding signal (z-score),[12],0.52
same,glycan array binding signal (z-score),[13],4.2
same,glycan array binding signal (z-score),[14],1.69
same,glycan array binding signal (z-score),[15],-0.491
same,glycan array binding signal (z-score),[16],-0.8
same,glycan array binding signal (z-score),[17],-0.251
same,glycan array binding signal (z-score),[18],-0.38
same,glycan array binding signal (z-score),[19],-0.649
same,glycan array binding signal (z-score),[20],0.079
same,glycan array binding signal (z-score),[21],-1.13
same,glycan array binding signal (z-score),[22],0.64
same,glycan array binding signal (z-score),[23],-0.46
same,glycan array binding signal (z-score),Gal(b1-4)Glc,-0.231
same,glycan array binding signal (z-score),Gal(b1-4)Glc6S,-0.321
same,glycan array binding signal (z-score),Gal(b1-4)GlcNAc,-0.156
same,glycan array binding signal (z-score),[24],-0.439
same,glycan array binding signal (z-score),[25],-0.563
same,glycan array binding signal (z-score),[26],-0.612
same,glycan array binding signal (z-score),[27],-0.711
same,glycan array binding signal (z-score),[28],-0.746
same,glycan array binding signal (z-score),[29],-0.102
same,glycan array binding signal (z-score),[30],0.223
same,glycan array binding signal (z-score),[31],1.05
same,glycan array binding signal (z-score),[32],0.157
same,glycan array binding signal (z-score),[33],0.037
same,glycan array binding signal (z-score),[34],-0.436
same,glycan array binding signal (z-score),[35],-0.836
same,glycan array binding signal (z-score),[36],-0.097
same,glycan array binding signal (z-score),[37],0.46
same,glycan array binding signal (z-score),[38],-0.685
